Test results: PMC11816700

By UniProt entry, the sequences of proteins in these tests, tags left out.
UniProt Q02FR1: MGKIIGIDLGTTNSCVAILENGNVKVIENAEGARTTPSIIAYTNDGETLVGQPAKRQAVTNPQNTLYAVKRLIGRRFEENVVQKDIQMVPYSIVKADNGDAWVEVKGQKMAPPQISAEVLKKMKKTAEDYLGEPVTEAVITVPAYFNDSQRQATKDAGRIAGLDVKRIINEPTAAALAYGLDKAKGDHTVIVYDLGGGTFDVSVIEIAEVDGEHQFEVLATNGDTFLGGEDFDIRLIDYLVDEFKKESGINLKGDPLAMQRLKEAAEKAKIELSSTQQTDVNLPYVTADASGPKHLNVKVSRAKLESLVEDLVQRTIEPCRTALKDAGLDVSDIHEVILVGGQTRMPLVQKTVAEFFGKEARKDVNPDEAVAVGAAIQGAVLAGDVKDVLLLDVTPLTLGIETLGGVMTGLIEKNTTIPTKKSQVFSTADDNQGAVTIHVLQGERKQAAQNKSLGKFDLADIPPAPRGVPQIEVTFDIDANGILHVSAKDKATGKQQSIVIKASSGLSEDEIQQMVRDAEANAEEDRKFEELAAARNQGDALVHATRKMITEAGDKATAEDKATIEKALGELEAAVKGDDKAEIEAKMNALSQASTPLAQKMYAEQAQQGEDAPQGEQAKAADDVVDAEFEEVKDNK
UniProt P30718: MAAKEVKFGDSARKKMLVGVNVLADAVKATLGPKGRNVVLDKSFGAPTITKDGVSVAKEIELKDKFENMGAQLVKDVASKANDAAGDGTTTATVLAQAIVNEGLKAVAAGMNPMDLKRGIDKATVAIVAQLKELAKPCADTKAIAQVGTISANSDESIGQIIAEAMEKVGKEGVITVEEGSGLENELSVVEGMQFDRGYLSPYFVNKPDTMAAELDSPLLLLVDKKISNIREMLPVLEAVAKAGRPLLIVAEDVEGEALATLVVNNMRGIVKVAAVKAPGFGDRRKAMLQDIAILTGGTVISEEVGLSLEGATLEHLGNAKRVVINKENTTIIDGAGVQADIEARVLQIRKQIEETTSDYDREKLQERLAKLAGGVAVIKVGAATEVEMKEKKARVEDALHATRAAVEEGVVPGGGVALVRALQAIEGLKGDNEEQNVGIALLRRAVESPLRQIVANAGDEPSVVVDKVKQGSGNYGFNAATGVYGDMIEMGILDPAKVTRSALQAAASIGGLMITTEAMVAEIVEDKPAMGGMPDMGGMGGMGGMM
UniProt Q59638: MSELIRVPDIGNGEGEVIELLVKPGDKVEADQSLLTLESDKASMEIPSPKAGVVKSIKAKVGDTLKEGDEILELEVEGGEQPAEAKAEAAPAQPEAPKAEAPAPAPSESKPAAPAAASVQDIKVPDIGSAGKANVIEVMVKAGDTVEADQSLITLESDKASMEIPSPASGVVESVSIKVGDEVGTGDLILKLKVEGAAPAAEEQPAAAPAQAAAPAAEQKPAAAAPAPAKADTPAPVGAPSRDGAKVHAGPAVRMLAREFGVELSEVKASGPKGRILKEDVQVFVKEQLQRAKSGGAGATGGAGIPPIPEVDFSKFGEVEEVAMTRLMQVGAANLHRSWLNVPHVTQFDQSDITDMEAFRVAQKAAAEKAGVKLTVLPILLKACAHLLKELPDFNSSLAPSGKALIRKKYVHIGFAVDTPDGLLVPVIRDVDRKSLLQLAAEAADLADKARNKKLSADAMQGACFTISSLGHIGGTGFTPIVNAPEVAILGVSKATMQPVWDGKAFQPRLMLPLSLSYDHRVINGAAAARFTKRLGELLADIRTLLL
UniProt Q9I3D1: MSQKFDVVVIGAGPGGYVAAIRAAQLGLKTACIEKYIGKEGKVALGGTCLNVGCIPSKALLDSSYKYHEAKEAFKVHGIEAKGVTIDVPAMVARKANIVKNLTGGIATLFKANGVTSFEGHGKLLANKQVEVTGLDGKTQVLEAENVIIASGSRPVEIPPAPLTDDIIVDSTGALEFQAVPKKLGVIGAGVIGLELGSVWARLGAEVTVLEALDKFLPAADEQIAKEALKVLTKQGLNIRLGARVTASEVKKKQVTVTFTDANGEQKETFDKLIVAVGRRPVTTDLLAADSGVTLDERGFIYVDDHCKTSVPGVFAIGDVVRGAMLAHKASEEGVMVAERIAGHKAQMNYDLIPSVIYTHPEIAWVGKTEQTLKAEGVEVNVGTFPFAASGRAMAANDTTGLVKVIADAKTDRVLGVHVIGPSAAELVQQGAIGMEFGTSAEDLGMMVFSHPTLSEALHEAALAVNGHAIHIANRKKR
UniProt Q9HV44: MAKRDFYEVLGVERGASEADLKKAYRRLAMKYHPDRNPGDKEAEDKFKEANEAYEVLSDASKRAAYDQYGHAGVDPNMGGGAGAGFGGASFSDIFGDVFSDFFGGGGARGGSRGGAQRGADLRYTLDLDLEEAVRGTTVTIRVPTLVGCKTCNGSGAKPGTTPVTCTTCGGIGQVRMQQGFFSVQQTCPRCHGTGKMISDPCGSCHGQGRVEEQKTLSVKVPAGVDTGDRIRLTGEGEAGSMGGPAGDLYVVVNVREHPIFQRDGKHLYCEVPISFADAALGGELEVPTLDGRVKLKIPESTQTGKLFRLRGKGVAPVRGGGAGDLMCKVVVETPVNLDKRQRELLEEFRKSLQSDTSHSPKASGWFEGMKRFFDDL

Molecular target: DnaK (Hsp70) chaperone of Pseudomonas aeruginosa PA14 (P. aeruginosa PA14 (endogenous in P. aeruginosa PA14)) (UniProt Q02FR1)
Experiment: affinity purification with mass spectrometry; anti-DnaK polyclonal IgG on Dynabeads Protein A; whole cell lysate of P. aeruginosa PA14 grown aerobically (1.4 mg/mL protein), cells treated with formaldehyde by the results; washed with PBS/0.02% Tween20; eluted with 100 mM citrate pH 2.5; LC-MS/MS, at least two unique peptides

Substance	binding
Chaperonin GroEL (from UniProt P30718 1-547)	binds
Dihydrolipoamide acetyltransferase AceF (from UniProt Q59638 1-547) (enzyme)	binds
Dihydrolipoamide dehydrogenase Lpd (from UniProt Q9I3D1 1-478) (enzyme)	binds
co-chaperone DnaJ (from UniProt Q9HV44 1-377)	no binding

These are yes or no findings as the source states them, for the method shown. Binding seen in cells or lysates may run through a third protein. Here binding means that the protein was enriched with, or labelled near, the bait; the list need not be complete. No binding means not detected with the bait.
